Results taken from publication PMC5655141, “Allosteric fine-tuning of the conformational equilibrium poises the chaperone BiP for post-translational regulation” (eLife, 2017).
These are yes or no findings as the source states them, for the method shown. Some results given as binding are weak or reduced against the parent protein; the word gives no strength.

Protein sequences, listed by entry. Tags and fused reporters are not part of them. Lines headed by an entry give the natural chain unless they say otherwise; changes in a name come on top. Chains listed by the source or under a name are the forms on record and can include a tag or linker.
BiP* (full-length ATPase deficient T229G BiP construct, hamster BiP(1-641)) (G3I8R9, form named): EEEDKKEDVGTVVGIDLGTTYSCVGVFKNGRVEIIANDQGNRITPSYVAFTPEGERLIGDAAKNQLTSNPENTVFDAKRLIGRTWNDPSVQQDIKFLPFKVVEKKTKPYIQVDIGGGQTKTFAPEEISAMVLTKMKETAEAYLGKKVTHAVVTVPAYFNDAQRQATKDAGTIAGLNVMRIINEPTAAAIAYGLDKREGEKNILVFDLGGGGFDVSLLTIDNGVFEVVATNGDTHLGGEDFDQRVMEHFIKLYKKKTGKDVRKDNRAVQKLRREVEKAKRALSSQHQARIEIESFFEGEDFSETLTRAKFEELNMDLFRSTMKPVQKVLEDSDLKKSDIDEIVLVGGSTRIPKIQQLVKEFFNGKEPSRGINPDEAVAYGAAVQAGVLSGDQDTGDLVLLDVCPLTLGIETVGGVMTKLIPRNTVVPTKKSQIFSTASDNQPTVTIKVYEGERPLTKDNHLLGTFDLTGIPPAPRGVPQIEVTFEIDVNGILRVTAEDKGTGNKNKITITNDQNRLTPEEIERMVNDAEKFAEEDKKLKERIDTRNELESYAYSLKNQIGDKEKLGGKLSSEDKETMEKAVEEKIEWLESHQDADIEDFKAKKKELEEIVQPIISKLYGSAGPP

How the values were obtained:
[1] = target: BiP* (full-length ATPase deficient T229G BiP construct, hamster BiP(1-641)) (hamster) (UniProt G3I8R9); assay: methyl-TROSY NMR (comparison of spectra); ATP-bound BiP* with and without P2 peptide; 2D 1H-13C SOFAST-HMQC, 25°C, 20 mM HEPES, 100 mM KCl, 5 or 40 mM MgCl2, pH 7.6, 5 or 40 mM ATP; both purified
[2] = target: BiP* (full-length ATPase deficient T229G BiP construct, hamster BiP(1-641)) (hamster) (UniProt G3I8R9); assay: methyl-TROSY NMR (comparison of spectra); ADP-bound BiP* with P2 peptide; 2D 1H-13C SOFAST-HMQC, 25°C, 20 mM HEPES, 100 mM KCl, 5 or 40 mM MgCl2, pH 7.6, 5 or 40 mM ADP; both purified

B1: P2 (model substrate peptide HTFPAVL) (peptide)
peptide: HTFPAVL
For B1, the binding [1] was “binds” and the binding [2] was “binds”.
